Results: publication PMC4825978
No constants are given. Whether binding was seen depends on the method and setting. Tags and fused reporters may be left off the sequences shown.

Amino acid sequences for entries named in this document (tags omitted).
UniProt P29555: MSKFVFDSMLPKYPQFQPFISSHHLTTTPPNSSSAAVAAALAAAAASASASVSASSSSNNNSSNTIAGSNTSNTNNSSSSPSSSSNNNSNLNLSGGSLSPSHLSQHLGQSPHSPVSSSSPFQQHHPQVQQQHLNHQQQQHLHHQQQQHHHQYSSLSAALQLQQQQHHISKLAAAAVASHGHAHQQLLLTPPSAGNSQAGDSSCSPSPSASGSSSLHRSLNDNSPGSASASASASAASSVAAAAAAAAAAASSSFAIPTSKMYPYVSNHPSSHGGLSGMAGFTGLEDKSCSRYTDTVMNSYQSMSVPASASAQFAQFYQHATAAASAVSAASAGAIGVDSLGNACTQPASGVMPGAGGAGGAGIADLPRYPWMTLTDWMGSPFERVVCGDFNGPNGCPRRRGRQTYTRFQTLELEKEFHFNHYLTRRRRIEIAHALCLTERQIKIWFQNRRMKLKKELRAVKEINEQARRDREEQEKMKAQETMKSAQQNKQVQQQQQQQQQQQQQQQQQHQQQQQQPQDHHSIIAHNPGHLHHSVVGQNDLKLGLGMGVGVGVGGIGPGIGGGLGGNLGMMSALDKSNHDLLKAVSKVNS

Biological target: T1, his-Hth (Homothorax) (Drosophila) (UniProt O46339)
T1 sequence: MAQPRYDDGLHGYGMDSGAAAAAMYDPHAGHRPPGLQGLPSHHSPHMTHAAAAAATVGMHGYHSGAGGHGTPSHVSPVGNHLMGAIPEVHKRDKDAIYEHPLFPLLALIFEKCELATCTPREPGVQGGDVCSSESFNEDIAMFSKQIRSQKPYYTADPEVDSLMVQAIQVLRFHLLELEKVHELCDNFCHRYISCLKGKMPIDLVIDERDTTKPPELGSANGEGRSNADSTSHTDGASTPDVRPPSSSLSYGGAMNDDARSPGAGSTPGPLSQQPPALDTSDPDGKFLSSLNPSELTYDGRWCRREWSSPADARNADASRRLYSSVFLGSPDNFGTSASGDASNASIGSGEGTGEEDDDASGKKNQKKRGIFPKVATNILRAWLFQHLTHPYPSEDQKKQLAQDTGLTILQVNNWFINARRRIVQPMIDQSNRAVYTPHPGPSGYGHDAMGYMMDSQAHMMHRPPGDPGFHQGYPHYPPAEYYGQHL
Test: condition: 200 nM Hth; Abd-A 37.5 nM to 300 nM; on the DCRE DNA probe; native gel or EMSA; complex formation on the radiolabelled DCRE full-length DNA probe (0.36 uM), native polyacrylamide gel; Hox protein titrated 37.5 nM to 300 nM with a fixed amount of Exd/Hth heterodimer (25 or 75 nM), DNA-binding deficient heterodimer (200 nM), Exd alone or Hth alone (200 nM); both purified

## His-tagged Abd-A (Abdominal-A) (from UniProt P29555 1-590)
  binding: no binding
